In paper PMC7181604, “Arabidopsis FHY3 and FAR1 integrate light and strigolactone signaling to regulate branching”:
No constants are given. Whether binding was seen depends on the method and setting. Some results given as binding are weak or reduced against the parent protein; the word gives no strength. Sequences can lack the tags named with a protein. One block for each binder: values may come before it.

Tests used:
[1] = target: T1, SMXL6 (yeast two-hybrid fusion) (Arabidopsis thaliana) (UniProt Q9LML2); assay: two-hybrid; LexA/AD system in yeast strain EGY48 plus H18; SD/-Ura/-Trp/-His, then raffinose, galactose and X-gal for blue color development
T1 sequence: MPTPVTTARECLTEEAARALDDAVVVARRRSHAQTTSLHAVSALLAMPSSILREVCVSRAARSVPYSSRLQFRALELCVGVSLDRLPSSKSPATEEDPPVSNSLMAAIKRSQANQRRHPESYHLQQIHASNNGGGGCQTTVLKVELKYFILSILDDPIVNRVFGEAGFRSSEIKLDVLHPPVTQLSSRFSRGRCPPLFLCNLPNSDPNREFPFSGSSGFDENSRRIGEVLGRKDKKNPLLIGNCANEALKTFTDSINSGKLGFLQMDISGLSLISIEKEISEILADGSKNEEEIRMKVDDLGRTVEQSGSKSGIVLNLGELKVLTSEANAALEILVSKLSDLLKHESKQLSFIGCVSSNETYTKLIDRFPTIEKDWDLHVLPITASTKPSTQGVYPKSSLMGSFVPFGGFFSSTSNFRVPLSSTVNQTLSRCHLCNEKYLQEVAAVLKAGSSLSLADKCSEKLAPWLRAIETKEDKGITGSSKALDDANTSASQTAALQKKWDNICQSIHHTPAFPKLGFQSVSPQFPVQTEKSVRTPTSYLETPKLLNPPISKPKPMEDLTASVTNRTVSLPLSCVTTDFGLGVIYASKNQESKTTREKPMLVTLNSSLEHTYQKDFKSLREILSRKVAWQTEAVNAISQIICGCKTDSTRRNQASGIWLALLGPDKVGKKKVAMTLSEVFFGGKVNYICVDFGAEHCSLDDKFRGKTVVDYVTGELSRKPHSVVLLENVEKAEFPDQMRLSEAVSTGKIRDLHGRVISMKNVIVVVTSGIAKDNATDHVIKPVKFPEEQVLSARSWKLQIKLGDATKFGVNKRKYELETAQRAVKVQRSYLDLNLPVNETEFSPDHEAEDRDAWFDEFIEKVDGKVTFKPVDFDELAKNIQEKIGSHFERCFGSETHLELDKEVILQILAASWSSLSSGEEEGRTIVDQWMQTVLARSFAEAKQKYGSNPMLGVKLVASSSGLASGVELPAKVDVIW

[2] = target: T2, SPL9 (yeast two-hybrid fusion) (Arabidopsis thaliana) (UniProt Q700W2); assay: as above
T2 sequence: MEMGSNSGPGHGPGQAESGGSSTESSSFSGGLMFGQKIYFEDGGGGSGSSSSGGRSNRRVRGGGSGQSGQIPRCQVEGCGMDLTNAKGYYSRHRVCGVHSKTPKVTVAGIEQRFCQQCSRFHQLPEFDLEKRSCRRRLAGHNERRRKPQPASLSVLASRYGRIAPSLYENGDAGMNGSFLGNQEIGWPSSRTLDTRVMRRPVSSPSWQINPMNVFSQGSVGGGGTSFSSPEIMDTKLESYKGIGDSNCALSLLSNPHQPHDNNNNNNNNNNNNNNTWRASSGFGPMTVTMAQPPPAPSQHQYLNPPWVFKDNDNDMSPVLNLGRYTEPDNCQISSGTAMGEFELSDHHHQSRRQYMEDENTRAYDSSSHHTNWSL

binding [1]: no binding
binding [2]: binds
B1: FAR1 (yeast two-hybrid fusion) (protein, UniProt Q9SWG3 1-827)
chain: MDLQENLVSDAGDDHMVDIVVEPHSNRDIGIVDEFNIGGDVGFSGDLDLEPRNGIDFDTHEAAYIFYQEYAKSMGFTTSIKNSRRSKKTKDFIDAKFACSRYGVTPESESSGSSSRRSTVKKTDCKASMHVKRRPDGKWIIHEFVKDHNHELLPALAYHFRIQRNVKLAEKNNIDILHAVSERTKKMYVEMSRQSGGYKNIGSLLQTDVSSQVDKGRYLALEEGDSQVLLEYFKRIKKENPKFFYAIDLNEDQRLRNLFWADAKSRDDYLSFNDVVSFDTTYVKFNDKLPLALFIGVNHHSQPMLLGCALVADESMETFVWLIKTWLRAMGGRAPKVILTDQDKFLMSAVSELLPNTRHCFALWHVLEKIPEYFSHVMKRHENFLLKFNKCIFRSWTDDEFDMRWWKMVSQFGLENDEWLLWLHEHRQKWVPTFMSDVFLAGMSTSQRSESVNSFFDKYIHKKITLKEFLRQYGVILQNRYEEESVADFDTCHKQPALKSPSPWEKQMATTYTHTIFKKFQVEVLGVVACHPRKEKEDENMATFRVQDCEKDDDFLVTWSKTKSELCCFCRMFEYKGFLCRHALMILQMCGFASIPPQYILKRWTKDAKSGVLAGEGADQIQTRVQRYNDLCSRATELSEEGCVSEENYNIALRTLVETLKNCVDMNNARNNITESNSQLNNGTHEEENQVMAGVKATKKKTVYRKRKGQQEASQMLESQQSLQPMETISSEAMDMNGYYGPQQNVQGLLNLMEPPHEGYYVDQRTIQGLGQLNSIAPAQDSFFTNQQAMSGMVGQIDFRPPPNFTYTLQEEHLSSAQLPGSSSRQL

binding [1]: no binding
binding [2]: binds
B2: FHY3 (yeast two-hybrid fusion) (protein, UniProt Q9LIE5 1-839)
chain: MDIDLRLHSGDLCKGDDEDRGLDNVLHNEEDMDIGKIEDVSVEVNTDDSVGMGVPTGELVEYTEGMNLEPLNGMEFESHGEAYSFYQEYSRAMGFNTAIQNSRRSKTTREFIDAKFACSRYGTKREYDKSFNRPRARQSKQDPENMAGRRTCAKTDCKASMHVKRRPDGKWVIHSFVREHNHELLPAQAVSEQTRKIYAAMAKQFAEYKTVISLKSDSKSSFEKGRTLSVETGDFKILLDFLSRMQSLNSNFFYAVDLGDDQRVKNVFWVDAKSRHNYGSFCDVVSLDTTYVRNKYKMPLAIFVGVNQHYQYMVLGCALISDESAATYSWLMETWLRAIGGQAPKVLITELDVVMNSIVPEIFPNTRHCLFLWHVLMKVSENLGQVVKQHDNFMPKFEKCIYKSGKDEDFARKWYKNLARFGLKDDQWMISLYEDRKKWAPTYMTDVLLAGMSTSQRADSINAFFDKYMHKKTSVQEFVKVYDTVLQDRCEEEAKADSEMWNKQPAMKSPSPFEKSVSEVYTPAVFKKFQIEVLGAIACSPREENRDATCSTFRVQDFENNQDFMVTWNQTKAEVSCICRLFEYKGYLCRHTLNVLQCCHLSSIPSQYILKRWTKDAKSRHFSGEPQQLQTRLLRYNDLCERALKLNEEASLSQESYNIAFLAIEGAIGNCAGINTSGRSLPDVVTSPTQGLISVEEDNHSRSAGKTSKKKNPTKKRKVNPEQDVMPVAAPESLQQMDKLSPRTVGIESYYGTQQSVQGMVQLNLMGPTRDNFYGNQQTMQGLRQLNSIAPSYDSYYGPQQGIHGQGVDFFRPANFSYDIRDDPNVRTTQLHEDASRHS
